Here are results for one substance from PMC6785866.

The chains behind the UniProt entries cited, without tags or fusion partners.
UniProt O02718: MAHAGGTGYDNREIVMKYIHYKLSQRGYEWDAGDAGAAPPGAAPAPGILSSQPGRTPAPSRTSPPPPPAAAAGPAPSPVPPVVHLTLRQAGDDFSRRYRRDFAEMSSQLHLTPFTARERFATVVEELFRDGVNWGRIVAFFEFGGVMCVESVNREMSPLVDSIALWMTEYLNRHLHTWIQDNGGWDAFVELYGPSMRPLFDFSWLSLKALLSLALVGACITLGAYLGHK
UniProt Q4A1L4: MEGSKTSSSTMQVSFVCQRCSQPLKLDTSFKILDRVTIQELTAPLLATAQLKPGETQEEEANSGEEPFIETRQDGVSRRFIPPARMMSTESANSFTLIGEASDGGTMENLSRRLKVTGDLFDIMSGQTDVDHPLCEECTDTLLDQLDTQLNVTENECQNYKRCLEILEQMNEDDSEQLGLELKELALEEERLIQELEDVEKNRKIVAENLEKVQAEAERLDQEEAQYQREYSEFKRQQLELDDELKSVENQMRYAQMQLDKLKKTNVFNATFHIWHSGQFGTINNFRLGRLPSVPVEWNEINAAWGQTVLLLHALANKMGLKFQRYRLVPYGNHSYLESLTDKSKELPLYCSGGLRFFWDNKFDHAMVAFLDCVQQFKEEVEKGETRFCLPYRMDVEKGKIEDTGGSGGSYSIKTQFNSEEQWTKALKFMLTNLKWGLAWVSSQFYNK

The test deals with Bcl-2 (bovine (endogenous in MDBK)) (UniProt O02718). As to the kind of experiment: co-IP; reciprocal immunoprecipitation of 500 ug extracted total cellular protein with Beclin 1 or Bcl-2 antibodies (Pierce Co-Immunoprecipitation Kit), Western blot for Beclin 1 and Bcl-2; cells uninfected or infected with BEFV (MOI 1, 6 h). (A western blot detects proteins with antibodies after separation by electrophoresis.)

No constants are given. Whether binding was seen depends on the method and setting. Binding seen in cells or lysates may run through a third protein. Some entries that bind do so weakly or less than the wild type.

Take Beclin 1 (from UniProt Q4A1L4 1-448): the binding result is reported as “binds”.
